Results taken from article doi:10.1101/2020.03.20.999888 (bioRxiv, 2020).
Results are given in words; binding and its absence hold for the method and conditions named. For some assays here: Binding seen in cells or lysates may run through a third protein. Some results given as binding are weak or reduced against the parent protein; the word gives no strength. For some assays here: Where a sequence is shown, tags or fusion partners need not be part of it.

Legend:
[1] = target: GspM^peri (P. aeruginosa) (UniProt P25061); assay: SEC-MALS
GspM (P. aeruginosa) = target: T1, GspM (P. aeruginosa) (UniProt P25061); assay: pull-down + SEC
T1 sequence: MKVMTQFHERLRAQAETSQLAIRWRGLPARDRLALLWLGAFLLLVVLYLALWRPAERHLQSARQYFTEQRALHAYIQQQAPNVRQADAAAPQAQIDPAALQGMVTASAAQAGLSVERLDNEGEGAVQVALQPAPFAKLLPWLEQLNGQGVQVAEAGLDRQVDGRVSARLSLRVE

[2] = target: T2, GspE, biotinylated (C-terminal AVI-tag) (P. aeruginosa) (UniProt Q00512); assay: BLI
T2 sequence (chain, biotin (in vivo biotinylated by co-expressed E. coli BirA)): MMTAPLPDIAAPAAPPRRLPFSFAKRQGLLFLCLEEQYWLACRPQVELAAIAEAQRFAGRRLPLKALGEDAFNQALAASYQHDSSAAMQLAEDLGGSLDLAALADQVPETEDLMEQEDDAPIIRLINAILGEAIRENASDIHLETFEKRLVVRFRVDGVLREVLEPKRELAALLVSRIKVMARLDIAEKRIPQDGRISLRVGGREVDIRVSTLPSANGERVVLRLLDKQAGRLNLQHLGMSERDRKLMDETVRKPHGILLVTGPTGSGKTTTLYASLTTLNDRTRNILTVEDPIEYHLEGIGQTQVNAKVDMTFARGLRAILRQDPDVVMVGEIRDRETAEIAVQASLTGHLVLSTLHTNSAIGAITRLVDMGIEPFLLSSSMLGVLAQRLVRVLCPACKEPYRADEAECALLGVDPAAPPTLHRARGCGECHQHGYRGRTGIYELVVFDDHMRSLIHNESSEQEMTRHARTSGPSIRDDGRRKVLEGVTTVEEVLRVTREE

[3] = target: T3, GspL^cyto, biotinylated (C-terminal AVI-tag) (P. aeruginosa) (UniProt P25060); assay: BLI
T3 sequence (chain, biotin (in vivo biotinylated by co-expressed E. coli BirA)): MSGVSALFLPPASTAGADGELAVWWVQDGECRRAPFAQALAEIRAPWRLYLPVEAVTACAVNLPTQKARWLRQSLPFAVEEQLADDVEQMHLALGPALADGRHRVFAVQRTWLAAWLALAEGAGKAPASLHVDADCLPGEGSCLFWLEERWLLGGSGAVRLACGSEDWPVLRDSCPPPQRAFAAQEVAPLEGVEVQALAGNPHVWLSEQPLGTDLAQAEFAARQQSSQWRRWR

[4] = target: GspL^cyto (P. aeruginosa) (UniProt P25060); assay: SEC-MALS

For “GspM^peri (from UniProt P25061 53-174) (domain or fragment)”, which binding [1] is on record?
The binding was “no binding (tested: 0.5-1.5 mg/ml)”.

B1: GspL (natural protein)
chain: MSGVSALFLPPASTAGADGELAVWWVQDGECRRAPFAQALAEIRAPWRLYLPVEAVTACAVNLPTQKARWLRQSLPFAVEEQLADDVEQMHLALGPALADGRHRVFAVQRTWLAAWLALAEGAGKAPASLHVDADCLPGEGSCLFWLEERWLLGGSGAVRLACGSEDWPVLRDSCPPPQRAFAAQEVAPLEGVEVQALAGNPHVWLSEQPLGTDLAQAEFAARQQSSQWRRWRPLLGLVGLWLVLQWGFTLVQAWQLQREGDRYAAQSAELYRQLFPEDRKLINLRAQFDQHLADSASSGGEGQLLGLLGQAATVIGGEPTVSVEQLDFSAARGDVALQVRAPGFDVLERLRSRLSESGLAVQLGSASRDGSTVSARLVIGG
With B1 as the molecule, how does the binding (GspM (P. aeruginosa)) read?
Its binding is “binds”.

B2: GspLM complex (complex, UniProt P25060;P25061)
chain 1: MSGVSALFLPPASTAGADGELAVWWVQDGECRRAPFAQALAEIRAPWRLYLPVEAVTACAVNLPTQKARWLRQSLPFAVEEQLADDVEQMHLALGPALADGRHRVFAVQRTWLAAWLALAEGAGKAPASLHVDADCLPGEGSCLFWLEERWLLGGSGAVRLACGSEDWPVLRDSCPPPQRAFAAQEVAPLEGVEVQALAGNPHVWLSEQPLGTDLAQAEFAARQQSSQWRRWRPLLGLVGLWLVLQWGFTLVQAWQLQREGDRYAAQSAELYRQLFPEDRKLINLRAQFDQHLADSASSGGEGQLLGLLGQAATVIGGEPTVSVEQLDFSAARGDVALQVRAPGFDVLERLRSRLSESGLAVQLGSASRDGSTVSARLVIGG
chain 2: MKVMTQFHERLRAQAETSQLAIRWRGLPARDRLALLWLGAFLLLVVLYLALWRPAERHLQSARQYFTEQRALHAYIQQQAPNVRQADAAAPQAQIDPAALQGMVTASAAQAGLSVERLDNEGEGAVQVALQPAPFAKLLPWLEQLNGQGVQVAEAGLDRQVDGRVSARLSLRVE
B2 was tested. Which binding [2] did it give?
Its binding is “binds”.

B3: recombinant GspE (enzyme, UniProt Q00512 1-502)
chain: MMTAPLPDIAAPAAPPRRLPFSFAKRQGLLFLCLEEQYWLACRPQVELAAIAEAQRFAGRRLPLKALGEDAFNQALAASYQHDSSAAMQLAEDLGGSLDLAALADQVPETEDLMEQEDDAPIIRLINAILGEAIRENASDIHLETFEKRLVVRFRVDGVLREVLEPKRELAALLVSRIKVMARLDIAEKRIPQDGRISLRVGGREVDIRVSTLPSANGERVVLRLLDKQAGRLNLQHLGMSERDRKLMDETVRKPHGILLVTGPTGSGKTTTLYASLTTLNDRTRNILTVEDPIEYHLEGIGQTQVNAKVDMTFARGLRAILRQDPDVVMVGEIRDRETAEIAVQASLTGHLVLSTLHTNSAIGAITRLVDMGIEPFLLSSSMLGVLAQRLVRVLCPACKEPYRADEAECALLGVDPAAPPTLHRARGCGECHQHGYRGRTGIYELVVFDDHMRSLIHNESSEQEMTRHARTSGPSIRDDGRRKVLEGVTTVEEVLRVTREE
B3 was tested. Which binding [3] did it give?
Its binding is “binds”.

B4: GspL^cyto (domain or fragment, UniProt P25060 1-233)
chain: MSGVSALFLPPASTAGADGELAVWWVQDGECRRAPFAQALAEIRAPWRLYLPVEAVTACAVNLPTQKARWLRQSLPFAVEEQLADDVEQMHLALGPALADGRHRVFAVQRTWLAAWLALAEGAGKAPASLHVDADCLPGEGSCLFWLEERWLLGGSGAVRLACGSEDWPVLRDSCPPPQRAFAAQEVAPLEGVEVQALAGNPHVWLSEQPLGTDLAQAEFAARQQSSQWRRWR
B4 was tested. Which binding [4] did it give?
The binding was “no binding (tested: 0.5-1.5 mg/ml)”.
